Measured values as given in PMC10079682.
No constants are given. Whether binding was seen depends on the method and setting. In cells and extracts the contact can be indirect. Here binding means that the protein was enriched with, or labelled near, the bait; the list need not be complete. For some assays here: Sequences can lack the tags named with a protein.

Protein sequences, listed by entry. Tags and fused reporters are not part of them. Residues count along the entry.
UniProt Q9NZQ7, residues 19-290: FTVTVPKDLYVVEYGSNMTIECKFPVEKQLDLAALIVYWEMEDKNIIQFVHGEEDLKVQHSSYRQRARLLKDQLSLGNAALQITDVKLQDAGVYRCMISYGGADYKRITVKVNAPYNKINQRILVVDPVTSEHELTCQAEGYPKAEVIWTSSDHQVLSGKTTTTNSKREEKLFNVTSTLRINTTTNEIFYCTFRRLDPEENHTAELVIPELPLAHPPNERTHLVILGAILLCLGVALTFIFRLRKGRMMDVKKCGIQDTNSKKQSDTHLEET
UniProt Q9Y4B6: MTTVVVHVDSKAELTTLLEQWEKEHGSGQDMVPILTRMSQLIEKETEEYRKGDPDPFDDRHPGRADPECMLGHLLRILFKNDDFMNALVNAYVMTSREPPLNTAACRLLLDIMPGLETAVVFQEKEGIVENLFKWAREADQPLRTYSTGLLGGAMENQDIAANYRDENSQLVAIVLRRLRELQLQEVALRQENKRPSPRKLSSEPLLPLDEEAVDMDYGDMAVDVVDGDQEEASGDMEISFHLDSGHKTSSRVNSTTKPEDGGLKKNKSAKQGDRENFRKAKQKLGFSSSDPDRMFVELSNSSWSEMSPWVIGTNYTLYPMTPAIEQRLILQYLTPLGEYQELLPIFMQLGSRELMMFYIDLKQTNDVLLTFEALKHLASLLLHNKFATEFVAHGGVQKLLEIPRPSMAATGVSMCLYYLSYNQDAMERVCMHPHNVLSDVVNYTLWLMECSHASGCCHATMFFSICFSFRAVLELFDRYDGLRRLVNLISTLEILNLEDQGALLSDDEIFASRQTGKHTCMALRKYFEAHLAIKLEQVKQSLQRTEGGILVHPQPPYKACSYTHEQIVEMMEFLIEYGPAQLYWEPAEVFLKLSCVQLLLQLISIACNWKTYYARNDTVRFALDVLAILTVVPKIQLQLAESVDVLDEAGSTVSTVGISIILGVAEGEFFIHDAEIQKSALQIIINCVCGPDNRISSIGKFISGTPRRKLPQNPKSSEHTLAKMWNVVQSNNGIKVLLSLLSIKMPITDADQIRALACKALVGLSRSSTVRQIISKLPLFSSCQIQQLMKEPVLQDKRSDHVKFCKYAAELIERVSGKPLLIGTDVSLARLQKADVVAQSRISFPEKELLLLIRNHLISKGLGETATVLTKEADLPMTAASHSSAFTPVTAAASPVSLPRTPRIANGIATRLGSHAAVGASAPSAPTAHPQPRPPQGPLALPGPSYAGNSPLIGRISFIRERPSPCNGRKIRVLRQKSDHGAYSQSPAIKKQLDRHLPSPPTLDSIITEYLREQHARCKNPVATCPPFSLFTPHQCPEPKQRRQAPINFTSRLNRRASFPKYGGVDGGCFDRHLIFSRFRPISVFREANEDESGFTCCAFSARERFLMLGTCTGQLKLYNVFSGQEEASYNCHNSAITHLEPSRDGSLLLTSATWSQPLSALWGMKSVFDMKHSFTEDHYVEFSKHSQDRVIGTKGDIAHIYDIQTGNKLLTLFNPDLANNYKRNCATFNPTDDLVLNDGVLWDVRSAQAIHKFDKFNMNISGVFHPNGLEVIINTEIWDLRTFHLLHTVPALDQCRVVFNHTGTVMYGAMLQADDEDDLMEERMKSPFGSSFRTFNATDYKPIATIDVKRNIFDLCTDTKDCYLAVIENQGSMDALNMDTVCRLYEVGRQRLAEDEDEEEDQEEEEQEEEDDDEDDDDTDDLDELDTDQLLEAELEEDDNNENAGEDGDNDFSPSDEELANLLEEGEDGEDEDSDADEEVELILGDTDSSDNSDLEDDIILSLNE

Legend:
SFB-tagged-USP2 protein = target: T1, SFB-tagged-USP2 protein (UniProt O75604); assay: affinity purification with mass spectrometry; biochemical purification of protein complexes formed by SFB-tagged USP2 in 293 cells; mass spectrometry
T1 sequence: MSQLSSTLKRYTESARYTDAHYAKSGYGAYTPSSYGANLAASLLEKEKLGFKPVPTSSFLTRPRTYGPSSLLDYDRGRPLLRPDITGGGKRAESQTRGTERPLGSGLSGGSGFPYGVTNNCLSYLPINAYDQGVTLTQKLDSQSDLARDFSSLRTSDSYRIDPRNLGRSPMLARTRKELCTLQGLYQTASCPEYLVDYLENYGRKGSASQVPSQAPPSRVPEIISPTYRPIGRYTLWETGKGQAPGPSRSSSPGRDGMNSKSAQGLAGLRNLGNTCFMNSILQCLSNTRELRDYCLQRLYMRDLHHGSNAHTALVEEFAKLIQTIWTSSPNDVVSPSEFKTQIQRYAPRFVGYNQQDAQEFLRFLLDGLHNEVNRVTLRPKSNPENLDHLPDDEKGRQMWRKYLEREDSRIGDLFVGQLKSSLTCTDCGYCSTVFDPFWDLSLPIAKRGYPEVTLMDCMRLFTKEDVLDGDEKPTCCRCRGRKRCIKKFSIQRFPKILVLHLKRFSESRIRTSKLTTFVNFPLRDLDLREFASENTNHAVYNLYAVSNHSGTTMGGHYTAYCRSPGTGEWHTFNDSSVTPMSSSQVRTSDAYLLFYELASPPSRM

[1] = target: C-terminal tagged PD-L1 (PD-L1-SFB) (human) (UniProt Q9NZQ7); assay: affinity purification with mass spectrometry; two-step affinity chromatography (anti-Flag M2-agarose beads and S-protein-agarose beads) from extracts of H1299 cells stably expressing PD-L1-SFB; LC-MS/MS

binding (SFB-tagged-USP2 protein): binds | binding [1]: binds
Substance: endogenous VPRBP (from UniProt Q9Y4B6 1-1507)
